{"source": "patent US10624840B2", "about": "“Method for performing cosmetic surgical procedures using tumescent anesthesia and oral sedation” (priority 2017, dated 2020)", "tested_on": "patient", "conditions": "lidocaine about 45 mg/kg to about 55 mg/kg of body weight in tumescent anesthetizing solution; multiple implementations of the process", "data": [{"smiles": "CCN(CC)CC(=O)Nc1c(C)cccc1C", "note": "[lidocaine]", "values": [{"measurement": "unwanted negative reactions on a patient / lidocaine toxicity", "result": "does not usually have any unwanted negative reactions on a patient, nor is it common for lidocaine toxicity to occur"}]}]}
